This is an account of results in US20210292814.

The exact form of at least one protein or probe is not confirmed.

Data set [1] relates to lactoferrin. The data set can be described thus: FP. The following applies: 37 C 15 min, purified native protein, protein details: spotted on glass microarray for selection, label: FITC, single-stranded DNA.
Data set [2] has as its system lactoferrin. Briefly: SELEX. The conditions noted are these: microarray chip selection, 7 rounds, purified native protein, protein details: spotted on glass microarray for selection, single-stranded DNA.
Where [3] appears, read: linear FP detection of lactoferrin.

Consider “GGCAGGACACCGTAACCAGTATAGGTGCATTTTTGGCGCAAGCTCTTCCTGCCCTG [N31]”, for which the binding result in the data set on lactoferrin [1] (setting [3]) is recorded as “binds”.

As for “GCAGGACACCGTAACTCGGGCAAAGCTCTGAATAATGTTCAACCAATATTCTGTCCTGC [N6]”, the binding result with lactoferrin [1] (setting [3]) is “binds”.

Regarding “TGACAGGCGGGACACCGTAACCCCAACACGTACGGGGCATTTATGGCATAGCTCTTCCTCCCTGCTACCTCCCTCCTCTTCA [SEQ ID NO 65]”, the selection result in the data set on lactoferrin [2] was “selected”.

Regarding “GCAGGACACCGTAACGGGCAATCTTGCTCTTATTTTCACACTTGATAAATATGTCCTGC [SEQ ID NO 7]”, the selection result in the data set with lactoferrin [2] is on record as “selected”.

For “CAGGCAGGACACCGTAACCGGGCATTTGCTCTCAATTTAGTCTCAAATTGTGGCCTGCCTG [SEQ ID NO 21]”, the selection result in the data set on lactoferrin [2] was “selected”.

With “AGCAGACGGGAGACCTTTAGAGTTGTAACTTGAGTCTGCT [SEQ ID NO 19]”, the selection result with lactoferrin [2] is on record as “selected”.

“GCAGGACACCGTAACGGGCTATGCTCTAAATTCTTCCTACTGACGCAATTTTGGACTGC [SEQ ID NO 25]”: in the data set on lactoferrin [2], the selection result was “selected”.

Take “TGACAGGCAGGACACCGTAACAACAACTCGATACTGGTGCCATTTTGGGCGAACGCTTTTCCTGCTACCTCCCTCCTCTTCA [SEQ ID NO 44]”: the selection result in the data set on lactoferrin [2] is given as “selected”.

As to “TGACAGGCAGGACACCGTAACGGGTAACACTCTACTTATACCTTGCTATAAGTTGTCCGCACTGCTACCTCCCTCCTCTTCA [SEQ ID NO 53]”, the selection result in the data set with lactoferrin [2] was “selected”.

For the sequence “GCAGGACACCGTAACAACAACTTCGTATCCGGTGCATTTATGGCGAATGCTTTTCCTGC [SEQ ID NO 30]”, the selection result with lactoferrin [2] is recorded as “selected”.

“CAGGCAGGACACCGTAACGGTGCAATTATTGGTGAACACTCTTCCTTAGCCTGCTACTCTG [SEQ ID NO 27]”: the selection result with lactoferrin [2] is “selected”.

For the sequence “GGCAGGACACCGTAACCATCGACGGTGCCGGTCTCGGGCATTTTGCTCTTCCTGCC [SEQ ID NO 36]”, the selection result in the data set with lactoferrin [2] is reported as “selected”.

Take “GCAGGACACCGTAACTCATCCCAAGCTCCGGTGCCATCTATGGGCTTCGCTTTTCCTGC [SEQ ID NO 28]”: the selection result in the data set with lactoferrin [2] is given as “selected”.

As for “TGACAGGCAGGACACCGTAACACGGTGCAAACTCTTGGCGAATGCTTTTCCTGACCCGCTACTGCTACCTCCCTCCTCTTCA [SEQ ID NO 47]”, the selection result in the data set with lactoferrin [2] is given as “selected”.

Regarding “AGGCAGGACACCGTAACGGTGCATCTATGGCTTTGCTCTTCCTACCTGTTCTACGAGCTGCTACCTCCCT [SEQ ID NO 42]”, the selection result in the data set with lactoferrin [2] is recorded as “selected”.

Take “GGCAGGACACCGTAACCCCTAGTTCCTGGTGCATTTATGGCAAAGCTTTTCCTGCC [N16]”: in the data set with lactoferrin [1] (setting [3]), the binding result is given as “binds”.

On to “TGACAGGCAGGACACCGTAACACACGTTAACTTACGGCGCATTTTTTGGCTTCAGCTCTTCCTGCTACCTCCCTCCTCTTCA [SEQ ID NO 46]”, for which the selection result in the data set on lactoferrin [2] is “selected”.

For “TGACAGGCAGGACACCGTAACGGTGCGGTCATATCCGGCTTTGCTTTTCCTGCCTTCTCTCCTGCTACCTCCCTCCTCTTCA [SEQ ID NO 64]”, the selection result in the data set on lactoferrin [2] is reported as “selected”.

Regarding “TGACAGGCAGGACACCGTAACCATACTTCGGTGCATCCCATGGCGAATTCGCTCTTCCTTCCTGCTACCTCCCTCCTCTTCA [SEQ ID NO 49]”, the selection result in the data set on lactoferrin [2] is “selected”.

Consider “TGACAGGCAGGACACCGTAACACGGGGCAATTTTGGTGAAGCTCTTCCTGCCCAGCCTACTCTGCTACCTCCCTCCTCTTCA [SEQ ID NO 58]”, for which, in the data set on lactoferrin [2], the selection result is on record as “selected”.

Take “GGCAGGACACCGTAACCCCTAGTTCCTGGTGCATTTATGGCAAAGCTCTTCCTGCC [SEQ ID NO 39]”: the selection result with lactoferrin [2] is reported as “selected”.

As to “TGACAGGCAGGACACCGTAACGGGTTTAACTCTCAAATTAGCTCTGCACTACATTTGTGCCCTGCTACCTCCCTCCTCTTCA [SEQ ID NO 54]”, the selection result in the data set on lactoferrin [2] is given as “selected”.

For the sequence “TGACAGGCAGGACACCGTAACCGGGCTATTGCTCTCAAACTTACACTTTAACGTTTGGGTCCTGCTACCTCCCTCCTCTTCA [SEQ ID NO 59]”, in the data set with lactoferrin [2], the selection result was “selected”.

Take “TGACAGGCAGGACACCGTAACGGGCTTATGCTCTTAAAAATCCTGAGCGACTTTTTATGTACTGCTACCTCCCTCCTCTTCA [SEQ ID NO 63]”: the selection result in the data set with lactoferrin [2] was “selected”.

For “GCAGGACACCGTAACACTGCTTTATCCCCGTCGGCTTGGCTCTTCGACAGTGTGGCTGC [N14]”, the binding result with lactoferrin [1] (setting [3]) is given as “binds”.

In the case of “GCAGGACACCGTAACGGGCGGAGCTCTTCCATTTCAGATTTGTAAATGGATGTCACTGC [SEQ ID NO 24]”, in the data set on lactoferrin [2], the selection result was “selected”.

For the sequence “AGGCAGGACACCGTAACCTACAACGGTGCCATCTATGGGCTTTGCTTTTCCTGCCT [SEQ ID NO 40]”, the selection result in the data set with lactoferrin [2] is “selected”.

On to “TGACAGGCAGGACACCGTAACAACCAACCTACGGTGCAATATTTGGCGGATTAAGCTCTTCCTGCTACCTCCCTCCTCTTCA [SEQ ID NO 45]”, for which the selection result in the data set on lactoferrin [2] is “selected”.

Regarding “GACAGGCAGGACACCGTAACGGTGCATCCATGGCTTTTAGCTCTTCCTGAACTGTC [SEQ ID NO 41]”, the selection result in the data set on lactoferrin [2] (shares conserved SEQ 67) is on record as “selected”.

Take “GCAGGACACCGTAACGTATTAACTAGTACCAGTGCATCTATGGCTATTGCTTTTCCTGC [SEQ ID NO 14]”: the selection result in the data set with lactoferrin [2] is listed as “selected”.

As for “AGGCAGGACACCGTAACCGGTGCATCTATGGCTACTAGCTTTTCCTGCCT [N2]”, the binding result with lactoferrin [1] (250 nM FITC-aptamer with 25 ug/mL lactoferrin) is listed as “binds”.

On to “TGACAGGCAGGACACCGTAACATACGATTCTCTCGCACATTGTGGCTCCGCTTTTATGTTACTGCTACCTCCCTCCTCTTCA [SEQ ID NO 48]”, for which the selection result with lactoferrin [2] was “selected”.

For the sequence “GCAGGACACCGTAACGGGCGAACGCTCTAAATAAATGGCATCAATTTCTTTTGCCCTGC [SEQ ID NO 8]”, the selection result in the data set with lactoferrin [2] is “selected”.

With “GCAGGACACCGTAACGGGTGCACACTCTTATTTTTACACGAGCCAAAAATATGTCCTGC [SEQ ID NO 26]”, the selection result in the data set with lactoferrin [2] is given as “selected”.

“GCAGGACACCGTAACACTACCTTCTTTCGGTGCGATCCATTCGGCTTTGCTTTTCCTGC [SEQ ID NO 31]”: the selection result with lactoferrin [2] was “selected”.

With “GGCAGGACACCGTAACCCCACTCGAGGTGCAATTTTGGCGTGAGCTCTTCCTGCC [SEQ ID NO 37]”, the selection result in the data set with lactoferrin [2] was “selected”.

On to “GCAGGACACCGTAACAATACTCCTGTTACCGTGCATCTATGGCCATTGGCTTTTCCTGC [SEQ ID NO 11]”, for which the selection result in the data set on lactoferrin [2] is given as “selected”.
